No constants are given. Whether binding was seen depends on the method and setting. Some entries that bind do so weakly or less than the wild type.
Assays:
[1] = molecular target: T1, Cys-mutant of HspB8 (C10S/C99S/C195S/N138C) (human) (UniProt Q9UJY1); assay: SEC; SDS-PAGE of the 79–80 kDa SEC peak of the oxidised HspB7 and HspB8 Cys-mutant mixture; data not shown; both purified
T1 sequence: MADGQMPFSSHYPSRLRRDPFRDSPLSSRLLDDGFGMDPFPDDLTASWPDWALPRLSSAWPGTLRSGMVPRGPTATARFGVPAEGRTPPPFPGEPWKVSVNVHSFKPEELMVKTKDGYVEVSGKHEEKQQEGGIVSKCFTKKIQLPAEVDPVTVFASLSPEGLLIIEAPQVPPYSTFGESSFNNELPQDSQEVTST

By UniProt entry, the sequences of proteins in these tests, tags left out.
UniProt Q9UBY9: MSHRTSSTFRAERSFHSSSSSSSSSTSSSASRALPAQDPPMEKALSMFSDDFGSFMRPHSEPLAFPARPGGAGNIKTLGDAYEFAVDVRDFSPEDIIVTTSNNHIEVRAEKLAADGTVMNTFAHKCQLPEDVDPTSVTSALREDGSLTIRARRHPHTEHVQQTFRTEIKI

[2] = molecular target: T1, Cys-mutant of HspB8 (C10S/C99S/C195S/N138C) (human); assay: SEC; oxidised (disulfide cross-linked) proteins alone or in equimolar mixture on Superdex 200 Increase GL 10/300; profile of the mixture compared with the arithmetic sum of the isolated proteins; both purified
[3] = molecular target: T1, Cys-mutant of HspB8 (C10S/C99S/C195S/N138C) (human); assay: cross-linking; disulfide cross-linking: reduced proteins alone or in equimolar mixture (15 µM each), 1 h at 42 °C, dialysed overnight at 37 °C against 50 mM Tris-HCl pH 8.0, 50 mM KCl, 0.1 mM PMSF; read by SDS-PAGE (HspB8) or urea gel electrophoresis (HspB6); both purified

Measured: binding

recombinant human small heat shock protein HspB7 (cvHsp), wild type, untagged (from UniProt Q9UBY9 1-170)
binds: all assays above

From PMC8345930
